The nature of this assay: inhibitors of GR-EGFP nuclear translocation, primary screen, dynein cargo transport inhibitor project, imaging, high-content, 3617.4 mouse cells (AID 1381). To be noted: stimulated with dexamethasone, 1 µM.
Setting [1] is: measured here: cell count per field, at 20 µM.
Where [2] appears, read: measured here: cytoplasmic GR-EGFP intensity, at 20 µM, stronger effect = higher value.
[3] abbreviates: measured here: nuclear GR-EGFP intensity, at 20 µM, stronger effect = lower value.
[4] abbreviates: measured here: cell count per field, at 50 µM.
Where [5] appears, read: measured here: cytoplasmic GR-EGFP intensity, at 50 µM, stronger effect = higher value.
The mark [6] stands for this setting: measured here: nuclear GR-EGFP intensity, at 50 µM, stronger effect = lower value.

The other results are listed elsewhere or left out.

On to `O=P1(Nc2ncccn2)COc2ccccc2OC1`, for which the z-score reads like this: under setting [1], 0.636; under setting [2], -0.37; under setting [3], -0.791.
On to `CN1CCCCC1COC(=O)C1(O)c2ccccc2CCc2ccccc21` (stereo unspecified), for which the z-score is -0.739 under setting [1], -0.178 under setting [2] and 0.356 under setting [3].
Take `COc1ccccc1OP(C)(=O)Nc1c(C)cccc1C` (stereo unspecified): the z-score by setting is: under setting [4], -0.613; under setting [5], -0.131; under setting [6], -1.15.
On to `Nc1cccc([As](=O)(O)c2ccccc2)c1`, for which the z-score was 0.587 under setting [1], -0.249 under setting [2] and -0.345 under setting [3].
With `CP(=O)(Nc1ccc(SC(F)(F)F)cc1)Oc1ccccc1` (stereo unspecified), the z-score reads like this: under setting [1], 0.403; under setting [2], -0.31; under setting [3], -0.674.
For `CCCOc1ccc(NP(C)(=O)Oc2ccc(Cl)cc2)cc1` (stereo unspecified), the z-score under setting [1] is -1.76, the z-score under setting [2] was determined as 0.257 and the z-score under setting [3] was found to be 1.62.
The matching figures for `O=P1(Nc2ccc(Br)cn2)COc2ccccc2OC1`: 0.95, -0.158 and -0.541.
Consider `Cc1ccc(OCC(=O)OC2CN3CCC2CC3)cc1` (stereo unspecified), for which the z-score reads like this: under setting [4], 0.651; under setting [5], -0.281; under setting [6], 0.000327.
With `O=[As](O)(c1cccs1)c1cccs1`, the z-score runs as follows: under setting [1], -0.0741; under setting [2], -0.75; under setting [3], -0.321.
As for `Cc1nn(-c2ccccc2)c2c1P(=O)(N1CCOCC1)N(C)C(c1ccccc1)=N2` (stereo unspecified), the z-score under setting [4] is 0.66, the z-score under setting [5] is -0.253 and the z-score under setting [6] was found to be 0.115.
Turning to `CC1CCC(C(C)C)C(OP(=O)(Nc2ccccn2)c2ccccc2)C1` (stereo unspecified), the z-score runs as follows: under setting [1], 1.15; under setting [2], -0.336; under setting [3], -0.865.
On to `COc1cc(C2NCCC3(OCCO3)C2(C)C)cc(OC)c1OC.O=[N+]([O-])c1cc([N+](=O)[O-])c(O)c([N+](=O)[O-])c1` (stereo unspecified), for which the z-score is -2.2 under setting [1], -0.0404 under setting [2] and 1.16 under setting [3].
Consider `O=[N+]([O-])c1cc([N+](=O)[O-])c(Nc2nnnn2CCO)c([N+](=O)[O-])c1`, for which the z-score by setting is: under setting [1], -1.3; under setting [2], -0.251; under setting [3], 0.95.
Regarding `CN(C)C1(CNC(=O)c2ccc(S(C)(=O)=O)cc2)CCCCC1`, the z-score was -0.933 under setting [1], -0.198 under setting [2] and 0.558 under setting [3].
`CCOC(=O)C(CC)C1=NC(C)(C)Cc2ccccc21.O=[N+]([O-])c1cc([N+](=O)[O-])c(O)c([N+](=O)[O-])c1` (stereo unspecified) registered a z-score under setting [1] of -2.31, a z-score under setting [2] of -0.178 and a z-score under setting [3] of 0.295.
For the molecule `O=C(/C=C/c1ccccc1)OC1CN2CCC1CC2` (stereo unspecified), the z-score is 0.443 under setting [1], -0.289 under setting [2] and -0.104 under setting [3].
`CC(C)/C=N\N=C(\N)N[N+](=O)[O-]` came in with a z-score under setting [1] of 0.751, a z-score under setting [2] of -0.322 and a z-score under setting [3] of -0.241.
As for `O=[As](O)(c1ccccc1Br)c1ccccc1Br`, the z-score by setting is: under setting [1], 0.892; under setting [2], -0.268; under setting [3], -0.138.
As for `CC1(CBr)Cn2c(nc3ccccc3c2=O)S1` (stereo unspecified), the z-score under setting [4] turned out to be 1.48, the z-score under setting [5] is -0.268 and the z-score under setting [6] is -0.966.
In the case of `Cc1nc2ccc3ccccc3c2s1.O=[N+]([O-])c1cc([N+](=O)[O-])c(O)c([N+](=O)[O-])c1`, the z-score under setting [1] amounted to 0.568, the z-score under setting [2] was -0.213 and the z-score under setting [3] was -0.0763.
For the molecule `O=P1(Nc2ccccn2)COc2ccccc2OC1`, the z-score is -0.264 under setting [1], -0.221 under setting [2] and 0.124 under setting [3].
As to `O=[N+]([O-])c1cc([N+](=O)[O-])c(-n2nnc3ccccc32)c([N+](=O)[O-])c1`, the z-score is, setting by setting: under setting [1], 0.0302; under setting [2], 0.826; under setting [3], -1.95.
